This series addresses P-glycoprotein (Pgp) purified from MDR CH^RB30 Chinese hamster ovary cells (Cricetulus griseus, UniProt P21448).

The chains behind the UniProt entries cited, without tags or fusion partners.
UniProt P21448, whole entry: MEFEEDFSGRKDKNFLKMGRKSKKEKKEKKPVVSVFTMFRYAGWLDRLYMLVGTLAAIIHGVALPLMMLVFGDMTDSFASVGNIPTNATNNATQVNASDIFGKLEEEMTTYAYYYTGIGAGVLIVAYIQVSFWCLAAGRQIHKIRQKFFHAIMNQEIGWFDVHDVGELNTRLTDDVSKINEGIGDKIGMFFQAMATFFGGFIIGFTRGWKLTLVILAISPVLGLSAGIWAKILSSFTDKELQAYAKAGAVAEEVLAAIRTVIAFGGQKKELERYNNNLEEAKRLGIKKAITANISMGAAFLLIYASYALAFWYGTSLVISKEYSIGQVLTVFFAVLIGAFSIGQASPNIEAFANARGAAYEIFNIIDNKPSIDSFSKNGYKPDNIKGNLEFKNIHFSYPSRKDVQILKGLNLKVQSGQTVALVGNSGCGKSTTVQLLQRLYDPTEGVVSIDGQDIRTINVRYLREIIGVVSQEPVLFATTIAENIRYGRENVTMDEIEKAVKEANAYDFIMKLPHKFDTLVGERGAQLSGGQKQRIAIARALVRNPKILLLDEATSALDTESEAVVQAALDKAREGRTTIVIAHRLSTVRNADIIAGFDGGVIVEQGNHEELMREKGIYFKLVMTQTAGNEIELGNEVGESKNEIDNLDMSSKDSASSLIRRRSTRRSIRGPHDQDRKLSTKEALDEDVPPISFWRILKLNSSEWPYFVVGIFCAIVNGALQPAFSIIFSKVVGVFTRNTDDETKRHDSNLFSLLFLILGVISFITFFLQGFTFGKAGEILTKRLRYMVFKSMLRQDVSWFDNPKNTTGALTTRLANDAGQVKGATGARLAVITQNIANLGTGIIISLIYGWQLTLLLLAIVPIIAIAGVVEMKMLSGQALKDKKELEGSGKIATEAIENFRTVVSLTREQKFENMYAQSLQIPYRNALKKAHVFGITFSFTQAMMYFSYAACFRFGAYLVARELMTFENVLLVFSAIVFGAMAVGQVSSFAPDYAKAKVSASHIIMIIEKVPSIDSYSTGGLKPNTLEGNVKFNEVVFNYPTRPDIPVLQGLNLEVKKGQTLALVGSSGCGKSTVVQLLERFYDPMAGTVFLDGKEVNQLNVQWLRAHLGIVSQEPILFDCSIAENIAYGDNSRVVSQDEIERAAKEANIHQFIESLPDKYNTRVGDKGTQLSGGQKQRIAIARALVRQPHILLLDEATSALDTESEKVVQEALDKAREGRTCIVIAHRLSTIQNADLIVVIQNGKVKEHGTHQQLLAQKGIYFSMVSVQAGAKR

Some entries of the source have several records that differ or are many. This is not the full list of results. The source may hold further records. Values that stand side by side differ, and nothing given here explains why; some may be repeats, others may stem from another dose, organism or construct than stated.

What is called Kd is the equilibrium constant for the complex coming apart. Take `CN(C)c1ccc2c(-c3ccccc3)c3ccc(N(C)C)cc3[o+]c2c1`: the dissociation constant Kd is 810 nM and 2.7 µM.

Values taken from patent US20040029100A1, “Rapid screen to identify p-glycoprotein substrates and high affinity modulators” (priority 2000, published 2004).
